Library screen at single concentrations

By UniProt entry, the sequences of proteins in these tests, tags left out. Residues count along the entry.
UniProt A4I591, 1-473: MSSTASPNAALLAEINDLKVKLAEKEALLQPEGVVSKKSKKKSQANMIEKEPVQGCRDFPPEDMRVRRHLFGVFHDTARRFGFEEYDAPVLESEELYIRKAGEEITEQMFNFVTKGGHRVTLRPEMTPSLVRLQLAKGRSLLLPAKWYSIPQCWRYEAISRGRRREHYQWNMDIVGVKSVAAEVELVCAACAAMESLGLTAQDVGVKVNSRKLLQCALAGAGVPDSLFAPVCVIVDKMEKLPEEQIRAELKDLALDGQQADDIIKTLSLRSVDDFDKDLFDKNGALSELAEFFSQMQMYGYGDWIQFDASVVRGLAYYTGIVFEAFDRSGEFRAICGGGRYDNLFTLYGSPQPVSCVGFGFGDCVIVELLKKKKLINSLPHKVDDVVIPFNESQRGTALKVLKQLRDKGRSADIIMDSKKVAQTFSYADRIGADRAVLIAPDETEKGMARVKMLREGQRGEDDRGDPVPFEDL

From ChEMBL document CHEMBL3988442, “University of Dundee, Small-Polar-MMV Screening Library” (2021).

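Enzyme assay of histidyl-tRNA synthetase; the read-out is not stated. Target: Histidine-tRNA ligase, Leishmania infantum (UniProt A4I591). Tested at 30 µM. Direction is inferred from retests: higher values go with stronger inhibition. The assay is labelled LdHisRS but filed under L. infantum. About 69,000 compounds were tested under these conditions; 0.6% (about 410) showed 50% or more at least once.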

The filed quantity is “Percent Effect” (%). The record does not define 0% and 100%; most values in the screen are far below 50% and negative numbers occur (in some assays of this library far below -100). Compounds were drawn at random from those tested, without regard to their results.

| structure | effect |
|---|---|
| `COCCCN1CCCC2(CCN(S(=O)(=O)c3cccnc3)C2)C1=O` (stereo not given) | 32.39 |
| `NC(=O)CCNC(=O)C1(N2CCCCC2)Cc2ccccc2C1` | 12.05 |
| `CCN(Cc1ccc(O)c(C(=O)O)c1)CC1CCOCC1` | 13.11 |
| `Cc1nc(C)c(CNCC2CCCn3ccnc32)s1` (stereo not given) | 21.05 |
| `COCc1ncc(CN(CCN(C)C)Cc2ccc(C)s2)cn1` | 5.128 |
| `CCC(NC(=O)NCc1cccc(N(C)C)n1)c1ccccc1OC` (stereo not given) | 25 |
| `N[C@@H]1CCN(Cc2cc(-c3ccccc3OC(F)(F)F)no2)C[C@H]1O` | 13.25 |
| `CC(C)c1ccc(C2CC(=O)Nc3c2cnn3C)cc1` (stereo not given) | 12.82 |
| `CNC(=O)c1cn2cc(-c3ccccc3Cl)n(CC3CC3)c(=O)c2n1` | 21.31 |
| `N[C@@H]1c2ccccc2C2(CCN(C(=O)c3cncc(Cl)c3)CC2)[C@H]1O` | 11.32 |
| `CCCN1CCC(Cc2noc(-c3cccnc3OC)n2)CC1` | 20.21 |
| `COC(=O)c1cccc(C(=O)N2CCN(c3cccc(C)c3C)CC2)n1` | 22.33 |
| `Cc1nc(SCC(=O)Nc2ccc(C(N)=O)cc2)c(C#N)c(C)c1C` | 5.479 |
| `CC1COCCN1C(=O)c1cnccn1` (stereo not given) | 7.143 |
| `CC(=O)NC(C)C(=O)N(Cc1ccc(C)c(C)c1)C1CC1` (stereo not given) | 34.29 |
| `CCc1n[nH]c(C2CN(C(=O)c3cnc(C)s3)CCO2)n1` (stereo not given) | 1.124 |
| `CCC(CO)N(Cc1ccsc1)CC1CC1` (stereo not given) | 1.333 |
| `Cc1nn(CCO)c(C)c1CNC1CCCCc2ccccc21` (stereo not given) | 6.612 |
| `Cn1cc(C(=O)N2CC[C@@H]3[C@@H]2CCN3c2ncc(F)cn2)cn1` | 14.29 |
| `CC(CNC(=O)CCn1cncn1)N1CCc2ccccc21` (stereo not given) | 20 |
| `CC(C)CC(=O)N1CCCC2(CC(C(=O)Nc3ccccc3)=NO2)C1` (stereo not given) | 5.556 |
| `CC(C)c1nc(CN(CC(N)=O)C(C)C)cs1` | 11.86 |
| `COc1ccc(C(=O)N2CCC3(CCC(=O)N(C(C)C)C3)CC2)cc1C` | 14.53 |
| `CN(C)S(=O)(=O)N1CCC(Oc2ccc(C#N)cc2)CC1` | 12.5 |
| `O=C(c1ccc(F)c(F)c1)N1CCC(Cn2cc(CO)nn2)CC1` | 3.261 |
| `Fc1ccc(CN2CCc3ncnc(C4CC4)c3CC2)cc1` | 13.83 |
| `CCn1c(C)nc2cc(NC(=O)CC3CCN(S(C)(=O)=O)CC3)ccc21` | 8.696 |
| `COCCn1c(=O)n(Cc2cccc(F)c2F)c2cc(C(=O)O)ccc21` | -2.381 |
| `CC(C)NC(=O)N1CCC(c2nnc3n2CCNC3)CC1` | 74.48 |
| `CN(Cc1ccsc1)C(=O)CNC(=O)N1CCc2ccccc2C1` | 4.348 |
| `O=C(NC1CC1)C(c1ccccc1)N1CCn2c(nnc2C2CC2)C1` (stereo not given) | 6.481 |
| `COc1ccc(CN2C[C@@H](O)[C@](O)(CNC(=O)c3ccccn3)C2)cc1` | 14.29 |
| `Cc1nnc2n1CCN(Cc1c(Cl)ccc3cccnc13)C2` | 1.6 |
| `CN(CCc1nc2ccccc2c(=O)[nH]1)CCC(F)(F)F` | 15.52 |
| `O=C(NCCc1nnc2n1CCC2)NC1(c2cccc(F)c2)CC1` | 17.14 |
| `O=C(c1cnc(-c2ccccc2)nc1)N1CCOC2(CCCC2)C1` | 2.618 |
| `COC(=O)CC1CSCCN1C(=O)CCc1c(C)nn(C)c1C` (stereo not given) | 10.62 |
| `CC(C)c1nnc(CN2CCN(C(C)c3nc(C4CC4)no3)CC2)o1` (stereo not given) | 1.709 |
| `OC1(Cn2ccc3ncccc32)CCN(Cc2cc(F)cc(F)c2)CC1` | 15.62 |
| `Cc1ccc(S(=O)(=O)N2CC(C)Oc3ncccc32)c(F)c1` (stereo not given) | 11.69 |
| `CN1C[C@@H](F)[C@@H](OCc2nc3ccccc3[nH]2)C1` | 13.51 |
| `O=C(Cn1cc(I)cn1)N1CCOCC1` | 11.48 |
| `Cc1nc(N2CCOCC2)nc2c1CN(C(=O)Cc1ccccn1)CC2` | 0.9434 |
| `O=C(CSCc1ccncc1)NCc1csc(Br)c1` | 15.38 |
| `CS(=O)(=O)N1CCC(C(=O)Nc2nnc(C(F)(F)F)[nH]2)CC1` | 22.37 |
| `CC1(C)COCCN1C(=O)CCc1nc(-c2ccc(Cl)cc2)no1` | -13.39 |
| `CCOCC1CN(Cc2ccncc2)Cc2nn(C)cc21` (stereo not given) | 10.91 |
| `Cc1nccn1-c1ccc(C(C)NCCC(C)C)cc1` (stereo not given) | 22.08 |
| `Cc1ccc2nc(C3CCCN3Cc3csc(C)n3)[nH]c2c1` (stereo not given) | 12.5 |
| `COCCc1noc(-c2cn(Cc3ccccc3C)nn2)n1` | 10.83 |
| `CCCc1n[nH]c(C2CN(CCn3cccn3)CCO2)n1` (stereo not given) | 10.58 |
| `COc1cc(C(=O)N2CC[C@@H](NC(=O)c3ccccn3)[C@H](O)C2)ccn1` | 5.208 |
| `CCn1cc(CN2CCCn3nc(CCC(=O)NCCO)cc3C2)cn1` | 4.717 |
| `COc1ccc([C@@H]2CN(C(=O)CCc3cc(Cl)no3)C[C@H]2N(C)C)cc1` | 18.75 |
| `Cc1ccc(S(C)(=O)=O)cc1C(=O)N(C)Cc1ccco1` | 6.849 |
| `CCN(C1CCS(=O)(=O)C1)S(=O)(=O)c1cccc2cc(C)cnc12` (stereo not given) | 19.7 |
| `O=C(C1CCOC1)N1CC2(CCN(c3ccccc3)C2)C1` (stereo not given) | 36.54 |
| `Cc1nnc(NCc2ccc(Br)cc2)o1` | 17.65 |
| `CCOCCN1CCN(CCc2ccc3c(c2)CCO3)CC1` | 3.371 |
| `Cc1oc(CNC(=O)Cc2ccccc2Cl)cc1C(=O)O` | 3.333 |
| `Cc1nc[nH]c1C(=O)N1CC[C@@H](NC(=O)c2ccccn2)[C@H](O)C1` | 0 |
| `O=C(NCCOc1ccc(F)c(F)c1)NCc1ccncc1` | 26.92 |
| `O=c1cc(Cn2ccnc2)nc2n1CCCN(Cc1ccsc1)C2` | 11.65 |
| `CC(C)C(=O)N1CCN(CCOc2cccc(C#N)c2)CC1` | 10.53 |
| `O=C(NC1CC1)c1ccnc(N2CCOC(c3ccc(Cl)cc3)C2)c1` (stereo not given) | 8.333 |
| `COc1cc(C)c(NC(=O)NCCn2cccc2)cc1OC` | 32.39 |
| `O=C1C[C@H]2CC[C@@H](CN1)N2C1CCSCC1` | 7.965 |
| `CN(C)C(=O)CO[C@H]1CN(Cc2ccsc2)[C@@H]2COC[C@H]12` | 16.98 |
| `CCCN1CCC(N2CCOC(Cc3cccc(OC)c3)C2)CC1` (stereo not given) | 5.882 |
| `COc1cn(CC(=O)N2CCN(c3ccc(F)cc3)CC2)c(C)cc1=O` | 17.5 |
| `Cc1cnn(CCNCc2ccc(OCc3noc(C)n3)cc2)c1` | 9.821 |
| `Cc1cnc(C)c(Oc2ccc(CN3CCCC3)cc2Cl)n1` | 12.9 |
| `CCNC(=O)c1cn(C(C)(C)C)c2ncccc12` | 19.8 |
| `O=C1CC2(CCN(Cc3ccncc3)C2)CN1c1cccc(F)c1` (stereo not given) | 27.63 |
| `CCN(Cc1cc(F)ccc1Cl)C1CCS(=O)(=O)C1` (stereo not given) | 18.37 |
| `NC(=O)CC1CCCN(C(=O)NCC2(c3cccs3)CCCC2)C1` (stereo not given) | 4.167 |
| `CN1CC2(CCN(C(=O)c3ccc(-n4cccn4)cc3Cl)C2)OC1=O` (stereo not given) | 9.735 |
| `CCOCC1CN(Cc2cnn(C)c2)Cc2cnn(C)c21` (stereo not given) | 3.636 |

For reference, 9 entries once more:

* Cc1nn(CCO)c(C)c1CNC1CCCCc2ccccc21 (stereo not given) : 6.612%
* Cc1nnc(NCc2ccc(Br)cc2)o1 : 17.65%
* CCc1n[nH]c(C2CN(C(=O)c3cnc(C)s3)CCO2)n1 (stereo not given) : 1.124%
* Cc1nccn1-c1ccc(C(C)NCCC(C)C)cc1 (stereo not given) : 22.08%
* COCCCN1CCCC2(CCN(S(=O)(=O)c3cccnc3)C2)C1=O (stereo not given) : 32.39%
* Cc1nnc2n1CCN(Cc1c(Cl)ccc3cccnc13)C2 : 1.6%
* O=c1cc(Cn2ccnc2)nc2n1CCCN(Cc1ccsc1)C2 : 11.65%
* COCCn1c(=O)n(Cc2cccc(F)c2F)c2cc(C(=O)O)ccc21 : -2.381%
* CN1C[C@@H](F)[C@@H](OCc2nc3ccccc3[nH]2)C1 : 13.51%